Data as given in PubChem BioAssay AID504786 (Drosophila RNAi Screening Center, 2011)

Assay: 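Fly genes required for HIF-dependent transcription when hypoxia is mimicked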 (primary screen)
System: Drosophila S2 cells with a stable HIF luciferase reporter
Reagent: long dsRNA against Drosophila genes, about 0.2 µg dsRNA per well of a 384-well plate
Time to read-out: three days of knock-down, then 20 h of DFO before reading
Conditions: desferrioxamine (DFO) at 100 µM, an iron chelator that mimics hypoxia, for 20 h
Read-out: 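HIF reporter luminescence in cells given 100 µM DFO for 20 h, using the mouse ldh-a hypoxia-response element, scored as per-plate z-scores; higher means greater loss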
Reading the numbers: z-score: higher = stronger loss of HIF reporter signal
The deposit covers about 21,000 reagents; this is a random part of those that have a named target and a result. 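Primary screen; positive scores mean lost reporter signal, so the sign may be inverted from the usual convention.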 A plus sign joins genes that one reagent is predicted to hit.

The first 3 records, ahead of the listing:
target | amplicon | z-score, replicate 1 | z-score, replicate 2 | z-score, replicate 3 | z-score, replicate 4
His3.3A | DRSC03343 | -0.1 | -0.1 | – | –
Osi17 | DRSC12284 | 0.1 | 0.4 | – | –
CG42380 + CG42379 + PIG-M + 1 more | DRSC03884 | 0.5 | 0.5 | – | –

The list itself, from the first entry:
target | amplicon | z-score, replicate 1 | z-score, replicate 2 | z-score, replicate 3 | z-score, replicate 4
His3.3A | DRSC03343 | -0.1 | -0.1 | – | –
Osi17 | DRSC12284 | 0.1 | 0.4 | – | –
CG42380 + CG42379 + PIG-M + 1 more | DRSC03884 | 0.5 | 0.5 | – | –
CG42380 + CG42379 + PIG-M + 1 more | DRSC04580 | -0.2 | -0.2 | – | –
Nil | DRSC15953 | -0.1 | 0.5 | – | –
CG15414 | DRSC00429 | -0.4 | -0.4 | – | –
alpha-Est4 | DRSC12616 | -0.4 | -0.1 | – | –
Tps1 | DRSC00269 | -0.3 | -0.4 | – | –
Nep4 | DRSC15539 | -0.2 | -0.4 | – | –
CG3163 | DRSC04341 | -0.2 | 0.2 | – | –
Gr22e | DRSC20912 | 0.6 | 0 | – | –
CG9752 | DRSC04562 | -0.3 | -0.2 | – | –
CG11601 | DRSC00318 | -0.3 | -0.4 | – | –
nahoda | DRSC03954 | -0.5 | 0 | – | –
nahoda | DRSC04126 | -0.1 | 0.1 | – | –
lin-52 | DRSC18106 | -0.2 | -0.7 | – | –
simj | DRSC10942 | 1.6 | 1.1 | – | –
lncRNA:sphinx | DRSC17199 | 0.7 | -0.2 | – | –
CG4806 | DRSC04491 | 0.6 | 0.7 | – | –
dah | DRSC20320 | -0.5 | -0.2 | – | –
CG14693 | DRSC14916 | -0.3 | 0.5 | – | –
CG12693 | DRSC17882 | -0.3 | -0.2 | – | –
CG9143 | DRSC07338 | -0.2 | -0.3 | – | –
jp | DRSC02213 | -0.3 | -0.6 | – | –
jp | DRSC02744 | -0.3 | -0.5 | – | –
CG42237 | DRSC19891 | -0.2 | -0.4 | – | –
CG4598 | DRSC02763 | -0.3 | -0.1 | – | –
CG13131 | DRSC02227 | 0 | -0.1 | – | –
sowah | DRSC09186 | -0.1 | 0.7 | – | –
sowah | DRSC09758 | -0.3 | -0.3 | – | –
CG14143 | DRSC10146 | -0.3 | -0.5 | – | –
Gr97a | DRSC13802 | 0.1 | 1 | – | –
TORIP | DRSC10104 | -0.3 | -0.7 | – | –
ATP6AP2 | DRSC16420 | -0.1 | -0.6 | – | –
CG9458 | DRSC16495 | -0.5 | -1 | – | –
Fdh | DRSC16670 | -0.3 | -0.1 | – | –
Obp99a | DRSC15303 | 0.9 | 0.2 | – | –
CG13040 | DRSC09921 | -0.2 | -0.3 | – | –
ND-B14.5B | DRSC00346 | -0.3 | -0.4 | – | –
CG9592 | DRSC11078 | -0.4 | -0.5 | – | –
senju | DRSC02366 | -0.3 | -0.3 | – | –
CG13992 | DRSC02324 | -0.3 | -0.2 | – | –
Membrin | DRSC10448 | -0.5 | -0.6 | – | –
elav | DRSC18772 | -0.3 | -0.6 | – | –
Pex14 | DRSC11754 | -0.3 | -0.4 | – | –
hng2 | DRSC16412 | -0.2 | -0.3 | – | –
drosha | DRSC07607 | 0.4 | 0.4 | – | –
CG18343 | DRSC06726 | -0.1 | 0 | – | –
CG14488 | DRSC06460 | -0.2 | -0.2 | – | –
CG7049 | DRSC08587 | -0.2 | -0.3 | – | –
CG30371 | DRSC06835 | -0.2 | -0.3 | – | –
Fas1 | DRSC16669 | 0.5 | 0.5 | – | –
Hsp60A | DRSC20254 | -0.4 | -0.3 | – | –
Non3 | DRSC16359 | -0.3 | 0.1 | – | –
Dnaaf3 | DRSC06684 | -0.3 | -0.3 | – | –
Nagk | DRSC15994 | -0.4 | -0.1 | – | –
RpL27 | DRSC15638 | 5.8 | 6.9 | – | –
amrt | DRSC19378 | 0 | 0.4 | – | –
LpR2 | DRSC13726 | -0.3 | -0.1 | – | –
LpR2 | DRSC13728 | -0.4 | -0.2 | – | –
LpR2 | DRSC15655 | -0.3 | -0.6 | – | –
LpR2 | DRSC15658 | 0.5 | -0.5 | – | –
CAH16 | DRSC15371 | 0.1 | 0.4 | – | –
feo | DRSC19398 | -0.7 | -0.4 | – | –
ktub | DRSC04551 | -0.3 | -0.4 | – | –
CG3764 | DRSC10375 | -0.3 | -0.1 | – | –
Eig71Ei | DRSC11156 | -0.2 | -0.4 | – | –
CG9257 | DRSC03173 | -0.3 | -0.9 | – | –
CG10332 (retired record) + IM18 | DRSC04064 | -0.2 | -0.2 | – | –
CG14277 | DRSC02380 | -0.3 | -0.5 | – | –
Ac3 | DRSC03692 | -0.2 | -0.4 | – | –
spt4 | DRSC07696 | 0.5 | 0.1 | – | –
CG2854 | DRSC18595 | -0.1 | 0.5 | – | –
Sgp | DRSC02195 | -0.3 | -0.1 | – | –
Gabat | DRSC10846 | -0.3 | -0.3 | – | –
CG15459 | DRSC20530 | -0.3 | -0.4 | -0.1 | -0.4
Ugt37D1 | DRSC02645 | -0.1 | -0.5 | – | –
CG8026 | DRSC07055 | -0.3 | -0.1 | – | –
CG8026 | DRSC07056 | -0.4 | -0.5 | – | –
obst-F | DRSC10805 | -0.2 | 0.4 | – | –
Jhbp16 | DRSC15039 | 0.6 | 0.2 | – | –
ReepA | DRSC04572 | -0.1 | 0.1 | – | –
CG15878 | DRSC08486 | 0.2 | 0.5 | – | –
cas | DRSC12373 | -0.3 | -0.4 | – | –
dsh | DRSC19803 | -0.1 | 1.2 | – | –
Wdr24 | DRSC14151 | -0.4 | -0.6 | – | –
CG15484 | DRSC02494 | -0.2 | -0.4 | -0.6 | -0.2
Trm7-34 | DRSC16171 | 0.2 | -0.9 | – | –
Cdk12 | DRSC11836 | 2.5 | 2.4 | – | –
Elba1 | DRSC00276 | -0.1 | 0 | – | –
CG16837 | DRSC04283 | -0.2 | -0.6 | – | –
CG11141 | DRSC06048 | -0.1 | 0 | – | –
CG31036 | DRSC15055 | -0.3 | -0.3 | – | –
CG31036 | DRSC15057 | 0 | -0.8 | – | –
tx (retired record) | DRSC16931 | 0.1 | 0.5 | – | –
l(2)k09022 | DRSC02108 | 1.1 | 3.8 | – | –
Shrm | DRSC06437 | 0.7 | 1 | – | –
Shrm | DRSC06438 | -0.1 | 0 | – | –
Shrm | DRSC07221 | -0.2 | -0.4 | – | –
side-II | DRSC01427 | -0.6 | -0.2 | – | –
side-II | DRSC01429 | -0.3 | -0.1 | – | –
side-II | DRSC01913 | -0.4 | -0.3 | – | –
side-II | DRSC01932 | -0.2 | -0.6 | -0.6 | -0.2
side-II | DRSC02480 | -0.1 | -0.4 | – | –
CG9192 | DRSC08639 | -0.2 | -0.3 | – | –
CG42500 | DRSC14822 | -0.2 | -1.2 | – | –
